Values from PubChem BioAssay AID1508597 (Cure First, 2020).
Shown is a random part of the about 2,100 reagents, in one setting of the screen. 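Calls flag viability under 80% in either arm, not effects specific to rucaparib; the reference for percent is not stated.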 Entries without a mark were called inactive. Some reagents were tested in more than one well and are listed for each. Not stated in the record: the 100% reference.

- Screen: 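Knock-downs altering ovarian cancer cell survival with or without PARP inhibitor rucaparib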 (primary screen)
- Cells: human ovarian carcinoma lines grown from tumours: OCI-P5x (papillary serous) and OCI-C5x (clear cell)
- Reagents: siRNA pool against human genes, 1.25 pmol siRNA per well
- Time to read-out: 72 h or 96 h, depending on the cell culture
- Treatment: rucaparib 20 µM (about IC30) or vehicle, present until read-out
- Rucaparib or vehicle: Rucaparib
- Cell line: OCI-P5x (serous)
- Read-out: 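Luminescent ATP-based viability assay read 72 or 96 h after transfection, depending on culture, given as normalised percent viability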
- Scale: viability, normalised: higher = more viable cells remaining
- Active means: 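a well counts as a hit if its normalised viability is under 80 percent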
- Meaning of the calls: active = viability under 80%; inactive = viability 80% or more

target,technical replicate,"viability, normalised (%)"
EPHA7,1,97.5
EPHA7,2,87.6
EPHA7,3,86.8
MAPKAPK2,1,77.4 (active)
MAPKAPK2,2,60.4 (active)
MAPKAPK2,3,63.1 (active)
SBK1,1,108
SBK1,2,114
SBK1,3,123
PCM1,1,43.6 (active)
PCM1,2,38.8 (active)
PCM1,3,39.3 (active)
MED7,1,39.1 (active)
MED7,2,62 (active)
MED7,3,48.5 (active)
HMGB2,1,65.8 (active)
HMGB2,1,111
HMGB2,2,54.6 (active)
HMGB2,2,118
HMGB2,3,113
HMGB2,3,71.2 (active)
PRDM1,1,29.7 (active)
PRDM1,2,48 (active)
PRDM1,3,44.3 (active)
XRCC1,1,74 (active)
XRCC1,2,79.2 (active)
XRCC1,3,76.5 (active)

Entries above whose gene name starts with P or p:
target,technical replicate,"viability, normalised (%)"
PCM1,1,43.6 (active)
PCM1,2,38.8 (active)
PCM1,3,39.3 (active)
PRDM1,1,29.7 (active)
PRDM1,2,48 (active)
PRDM1,3,44.3 (active)

The listing continues.
target,technical replicate,"viability, normalised (%)"
SET,1,65.4 (active)
SET,2,70.2 (active)
SET,3,74.5 (active)
MAST4,1,86
MAST4,2,73.9 (active)
MAST4,3,80.9
SCAF11,1,49 (active)
SCAF11,2,46.3 (active)
SCAF11,3,56.3 (active)
ENPP1,1,54.9 (active)
ENPP1,2,61 (active)
ENPP1,3,53.9 (active)
KDM1A,1,56.5 (active)
KDM1A,2,56.5 (active)
KDM1A,3,57 (active)
MMS19,1,72.7 (active)
MMS19,2,86
MMS19,3,69.7 (active)
ELAC2,1,47.6 (active)
ELAC2,2,53.3 (active)
ELAC2,3,41.9 (active)
RRM2,1,52.9 (active)
RRM2,2,43.7 (active)
RRM2,3,50.8 (active)
ARID5A,1,59.2 (active)
ARID5A,2,55.8 (active)
ARID5A,3,60.2 (active)
TPK1,1,90.3
TPK1,2,84.6
TPK1,3,67.1 (active)
